Test results taken from publication PMC7463958.

Legend:
[1] = molecular target: pGilda/LexA-human Msx1 fusion protein, Msx1 (1-297) (human); assay: two-hybrid; screen of a human ovary cDNA library (B42 fusions) with LexA-human Msx1 as bait; 4.5 x 10^6 transformants; selection on Ura-, His-, Trp-, Leu- medium, galactose dependency
[2] = molecular target: pGilda/LexA-human Msx1 fusion protein, Msx1 (1-297) (human); assay: two-hybrid; directed test in EGY48 yeast: LexA-Msx1 constructs with B42-PIASy constructs; growth on medium lacking leucine at 30 °C and β-galactosidase (X-gal, ONPG)
[3] = molecular target: LexA-Msx1 homeodomain (161-225aa), Arg161-Gln225 (human); assay: as above

| binding [1] | binding [2] | binding [3] | Binder |
| --- | --- | --- | --- |
| binds |  |  | PIASy cDNA clone isolated from the human ovary cDNA library (pJG4-5/B42-cDNA insert) (domain or fragment, UniProt Q8N2W9 415-510) CSPQGAILVLGPSDANGLLPAPSVNGSGALGSTGGGGPVGSMENGKPGADVVDLTLDSSSSSEDEEEEEEEEEDEDEEGPRPKRRCPFQKGLVPAC |
|  | binds | binds | B42-human protein inhibitor of activated STAT Y (PIASy), full length (1-510) (protein, UniProt Q8N2W9 1-510) MAAELVEAKNMVMSFRVSDLQMLLGFVGRSKSGLKHELVTRALQLVQFDCSPELFKKIKELYETRYAKKNSEPAPQPHRPLDPLTMHSTYDRAGAVPRTPLAGPNIDYPVLYGKYLNGLGRLPAKTLKPEVRLVKLPFFNMLDELLKPTELVPQNNEKLQESPCIFALTPRQVELIRNSRELQPGVKAVQVVLRICYSDTSCPQEDQYPPNIAVKVNHSYCSVPGYYPSNKPGVEPKRPCRPINLTHLMYLSSATNRITVTWGNYGKSYSVALYLVRQLTSSELLQRLKTIGVKHPELCKALVKEKLRLDPDSEIATTGVRVSLICPLVKMRLSVPCRAETCAHLQCFDAVFYLQMNEKKPTWMCPVCDKPAPYDQLIIDGLLSKILSECEDADEIEYLVDGSWCPIRAEKERSCSPQGAILVLGPSDANGLLPAPSVNGSGALGSTGGGGPVGSMENGKPGADVVDLTLDSSSSSEDEEEEEEEEEDEDEEGPRPKRRCPFQKGLVPAC |

No constants are given. Whether binding was seen depends on the method and setting. A result given as binding can be weak or reduced; the word gives no strength.
